These are yes or no findings as the source states them, for the method shown. Binding seen in cells or lysates may run through a third protein. Some results given as binding are weak or reduced against the parent protein; the word gives no strength.

The test concerns the target T1, ZBTB48 (telomeric zinc finger-associated protein, TZAP) (human (endogenous in patient-derived GSCs)) (UniProt P10074).
T1 sequence: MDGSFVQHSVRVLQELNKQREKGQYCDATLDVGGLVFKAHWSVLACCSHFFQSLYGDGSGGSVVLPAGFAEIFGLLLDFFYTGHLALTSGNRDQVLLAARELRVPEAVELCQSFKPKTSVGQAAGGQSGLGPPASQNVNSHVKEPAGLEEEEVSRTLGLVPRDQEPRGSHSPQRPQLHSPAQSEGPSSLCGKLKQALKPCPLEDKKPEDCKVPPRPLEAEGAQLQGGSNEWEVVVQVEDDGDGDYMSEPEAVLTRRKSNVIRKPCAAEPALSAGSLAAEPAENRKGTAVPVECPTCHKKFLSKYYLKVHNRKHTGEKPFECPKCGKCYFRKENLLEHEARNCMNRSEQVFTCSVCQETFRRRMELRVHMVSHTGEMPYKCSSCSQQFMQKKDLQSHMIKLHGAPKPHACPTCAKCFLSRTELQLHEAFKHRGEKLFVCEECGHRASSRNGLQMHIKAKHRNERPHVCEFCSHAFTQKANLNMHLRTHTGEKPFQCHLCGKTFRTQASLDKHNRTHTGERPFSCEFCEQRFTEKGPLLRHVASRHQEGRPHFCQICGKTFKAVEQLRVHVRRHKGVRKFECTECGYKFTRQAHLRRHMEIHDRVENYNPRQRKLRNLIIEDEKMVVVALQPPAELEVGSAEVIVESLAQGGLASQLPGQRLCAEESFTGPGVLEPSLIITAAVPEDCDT
The experiment in a line: co-IP; GSC lysates (SYNS03, SYNS05; IP lysis buffer with protease and phosphatase inhibitors) incubated with antibody-coupled magnetic beads at 4 °C overnight, then western blot; also done after circRNF10 knockdown in SYNS03, where binding was enhanced. (In general: In western blotting, separated proteins are transferred to a membrane and probed.)

B1: makorin ring finger protein 3 (MKRN3) (enzyme, UniProt Q13064 1-507)
chain: MEEPAAPSEAHEAAGAQAGAEAAREGVSGPDLPVCEPSGESAAPDSALPHAARGWAPFPVAPVPAHLRRGGLRPAPASGGGAWPSPLPSRSSGIWTKQIICRYYIHGQCKEGENCRYSHDLSGRKMATEGGVSPPGASAGGGPSTAAHIEPPTQEVAEAPPAASSLSLPVIGSAAERGFFEAERDNADRGAAGGAGVESWADAIEFVPGQPYRGRWVASAPEAPLQSSETERKQMAVGSGLRFCYYASRGVCFRGESCMYLHGDICDMCGLQTLHPMDAAQREEHMRACIEAHEKDMELSFAVQRGMDKVCGICMEVVYEKANPNDRRFGILSNCNHSFCIRCIRRWRSARQFENRIVKSCPQCRVTSELVIPSEFWVEEEEEKQKLIQQYKEAMSNKACRYFAEGRGNCPFGDTCFYKHEYPEGWGDEPPGPGGGSFSAYWHQLVEPVRMGEGNMLYKSIKKELVVLRLASLLFKRFLSLRDELPFSEDQWDLLHYELEEYFNLIL
On to B1, for which the binding result is given as “binds”.

These data come from article PMC10507871.
